# In PubChem BioAssay AID1487 (National Center for Advancing Translational Sciences (NCATS), 2009):
# The other results are listed elsewhere or left out. Further columns of the screen follow, without active or inactive calls. The list favours compounds with an active or inconclusive main result. The note in brackets gives the kind of curve behind each potency; many fits are weak.
# Experiment: qHTS Assay for Modulators of Lamin A Splicing
# Details: HeLa LMNA splicing GFP/RFP minigene ratio, 48 h
# In short: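 Read-out is the ratio of GFP to DsRed2 object intensity, acquired by 488 nm laser-scanning cytometry on HeLa lamin A-EGFP minigene reporter cells. Compound incubation 48 hrs at 37 °C in Opti-MEM with 2% FBS; DMSO 0.5% final.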
# [1] = measured here: RFP viability control channel
# [2] = measured here: GFP splicing reporter channel
Structure (SMILES),AC50 [1],AC50 [2]
COc1cc(OC)c(/C=N/n2c(C)nnc2C)c(OC)c1,"31.6 µM [rising, single point]",
CCOc1ccccc1C1C(C#N)=C(N)SC(N)=C1C#N,"35.5 µM [rising, single point]",
Cc1ccc(-c2ccnc3nc(-n4cccc4)nn23)o1,"0.112 µM [falling, full curve, poor fit]",
CC(C)Oc1ccc(C(=O)Nc2ccc(-c3nc4ccccc4s3)cc2)cc1,,"6.31 µM [rising, single point]"
N#CC(C#N)=NNc1ccc(S(=O)(=O)N2CCCC2)cc1,,"12.6 µM [rising, partial curve]"
Cn1ccnc1SCC(=O)Nc1cc(S(=O)(=O)N2CCOCC2)ccc1Cl,"14.1 µM [rising, partial curve, poor fit]","15.8 µM [rising, partial curve, poor fit]"
CCNc1ncc2nc(-c3cn(C)c4ccccc34)c(=O)n(C)c2n1,"8.91 µM [falling, partial curve, poor fit]","0.282 µM [falling, full curve, poor fit]"
O=C(Nc1ccc(S(=O)(=O)N2CCCCC2)cc1)c1ccc(CN2CCOCC2)cc1,"1.41 µM [rising, partial curve]","3.98 µM [rising, partial curve]"
Cc1cc(C)c(-n2c(C)cc(/C=C3/NC(=O)NC3=O)c2C)c(C)c1,"22.4 µM [falling, single point]",
CCc1ccc(OCC(=O)Nc2ccc(-c3cc4ccccc4oc3=O)c(OC)c2)cc1,"12.6 µM [rising, partial curve]","8.91 µM [rising, partial curve, poor fit]"
Cc1cc(C(=O)Nc2cccnc2)cs1,"14.1 µM [rising, single point]",
Cc1ccc(Cl)cc1NC(=O)CCCN1C(=O)CCn2nc(-c3cn(C)c4ccccc34)cc21,"0.00316 µM [falling, full curve, poor fit]","0.0224 µM [falling, full curve, poor fit]"
Cc1cc(Cl)c(S(=O)(=O)N2CCSCC2)cc1OCC(=O)NC1CCCCC1,"2.82 µM [rising, full curve]","2 µM [rising, full curve]"
Cc1noc(C)c1S(=O)(=O)N1CCC(Cc2ccccc2)CC1,"35.5 µM [rising, single point]","35.5 µM [rising, single point]"
Cc1nc2c(c3c1[nH]c1ccccc13)C(=O)CC(C)(C)C2,"15.8 µM [rising, single point]",
O=C(CC1SCCNC1=O)Nc1ccc(Cl)cc1 (stereo unspecified),,"0.00282 µM [rising, full curve, poor fit]"
Cc1cccn2c(=O)c(C=Nc3ccc(Cl)cc3)c(NCCO)nc12,"22.4 µM [rising, single point]",
Cc1ccc(C(=O)N2CC(C)SC2=Nc2cccc(S(=O)(=O)N(C)C)c2)cc1 (stereo unspecified),"31.6 µM [rising, single point]",
O=C(CSc1nc2ccccc2nc1Cc1ccccc1)N1CCN(c2ccccc2)CC1,,"0.398 µM [rising, single point]"
Cc1ccc(S(=O)(=O)N2CCOCC2)cc1C(=O)Nc1ccc2c(c1)CCC2,"22.4 µM [rising, single point]",
Cc1ccc(OCCn2c(=O)cnc3ccccc32)cc1,"25.1 µM [rising, single point]","15.8 µM [rising, single point]"
Cc1nnc2sc(-c3csc4c3CCCC4)nn12,"15.8 µM [falling, single point]","14.1 µM [falling, single point]"
CC12CCC(c3c(C(=O)Nc4nccs4)nn(-c4ccccc4)c31)C2(C)C (stereo unspecified),"22.4 µM [rising, single point]","17.8 µM [rising, partial curve]"
Cc1ccc(OCc2nnc(SCC(=O)CC(=O)Nc3ccccc3)o2)cc1,"17.8 µM [rising, single point]",
CC(=S)c1c(C)cc2cc(C)ccn12,"7.94 µM [rising, partial curve, poor fit]","7.08 µM [rising, partial curve, poor fit]"
COc1ccc(C2C3=C(N=C4SCC(=O)N42)c2ccccc2CC3)cc1 (stereo unspecified),"10 µM [rising, partial curve]","10 µM [rising, partial curve]"
CC(Sc1cnccn1)C(=O)O (stereo unspecified),"0.0562 µM [rising, full curve, poor fit]",

# Full records from above. Values in the order: AC50 [1] | AC50 [2]
# CCNc1ncc2nc(-c3cn(C)c4ccccc34)c(=O)n(C)c2n1 as listed: 8.91 µM [falling, partial curve, poor fit] | 0.282 µM [falling, full curve, poor fit]
# Cc1ccc(OCCn2c(=O)cnc3ccccc32)cc1 as listed: 25.1 µM [rising, single point] | 15.8 µM [rising, single point]

# Continuation.

Structure (SMILES),AC50 [1],AC50 [2]
Oc1ccccc1/C=N/NC(=S)NC1CC2CCC1C2 (stereo unspecified),,"11.2 µM [falling, partial curve, poor fit]"
CC1(C)O[C@@H]2C[C@@H]3[C@H]4C[C@@H](F)C5=CC(=O)C=C[C@]5(C)[C@@]4(F)[C@@H](O)C[C@]3(C)[C@]2(C(=O)CO)O1,"0.316 µM [falling, partial curve, poor fit]","35.5 µM [falling, single point]"
O=C(CCCN1C(=O)/C(=C/c2ccco2)SC1=S)Nc1ccccc1,"17.8 µM [rising, partial curve]",
O=C(COc1ccc(Br)cc1Cl)NC1CCCCC1,"17.8 µM [rising, partial curve]","15.8 µM [rising, partial curve, poor fit]"
N#Cc1ccc(NC(=O)Nc2ccc(Oc3ccc(NC(=O)Nc4ccc(C#N)cc4)cc3)cc2)cc1,"31.6 µM [rising, single point]","35.5 µM [rising, single point]"
CCOc1ccc(-n2c(SCc3ccc([N+](=O)[O-])cc3)nnc2-c2ccccc2)cc1,"31.6 µM [rising, single point]",
Cn1ncc([N+](=O)[O-])c1C(=O)Nc1ccc(-c2nc3ccccc3o2)cc1,"4.47 µM [falling, full curve, poor fit]","3.98 µM [falling, single point]"
CC1(C)CC(=O)c2c(oc3ccc(NS(=O)(=O)c4ccc(C(=O)O)cc4)cc23)C1,"1.58 µM [rising, partial curve, poor fit]",
Cc1ccccc1-n1cc(CNC(=O)CCc2nnc(CCc3ccccc3)o2)cn1,,"0.00316 µM [falling, full curve, poor fit]"
O=C(NCc1ccco1)c1ccc(Oc2ccccc2)cc1,"35.5 µM [rising, single point]",
Cc1ccc(CC(=O)Nc2ccc(F)c([N+](=O)[O-])c2)cc1,"11.2 µM [rising, partial curve, poor fit]",
CCCCCCOC(=O)Nc1ccc(S(=O)(=O)Nc2cccc([N+](=O)[O-])c2)cc1,"12.6 µM [rising, partial curve]",
CC(C)C(=O)Nc1cccc(C(=O)Nc2ccccc2C(=O)O)c1,"0.891 µM [falling, full curve, poor fit]",
CC(N)=NCc1cccc(CN)c1,,"0.000891 µM [falling, full curve, poor fit]"
COc1ccc(CCn2c(C(C)C)nc3c(c(=O)c4ccccc4n3C)c2=O)cc1,"10 µM [rising, partial curve]","7.94 µM [rising, partial curve, poor fit]"
CCOc1ccc(CNC(=O)C2CCN(S(=O)(=O)c3ccc4c(ccn4C)c3)CC2)cc1,"1.41 µM [falling, partial curve, poor fit]","1.78 µM [falling, full curve]"
Cc1ccc(C2C3=C(CC(C)(C)CC3=O)NC3=C2C(=O)c2ccccc23)cc1 (stereo unspecified),"20 µM [rising, single point]",
COc1ccc(CCn2c(SCCN3CCCCC3)nc3ccccc3c2=O)cc1OC,"0.01 µM [falling, full curve, poor fit]","0.0891 µM [falling, full curve, poor fit]"
Cc1ccccc1NC(=O)CSc1cn(CC(=O)N2CCCC2)c2ccccc12,,"0.00398 µM [rising, full curve, poor fit]"
COc1ccc(C(CC(=O)c2ccccc2)S(=O)(=O)c2ccc(C)cc2)cc1 (stereo unspecified),"17.8 µM [falling, partial curve]","35.5 µM [falling, single point]"
CCCc1nn2c(N)c(/C=C3\C=Nc4ccccc43)c(=O)nc2s1,"7.08 µM [rising, partial curve, poor fit]",
Cc1ccccc1C(=O)/C(C#N)=N/Nc1c(C)n(C)n(-c2ccccc2)c1=O,"6.31 µM [rising, full curve]",
CC(C)c1cc(=O)oc2c3c4c(cc12)CCCN4CCC3,"10 µM [rising, partial curve, poor fit]","1.12 µM [rising, full curve, poor fit]"
Cc1cccc(NC(=S)N/N=C/c2ccc3c(c2)OCO3)c1,"25.1 µM [rising, partial curve]","22.4 µM [rising, partial curve, poor fit]"
O=C(COc1ccc(-c2nnco2)cc1)N1CCN(S(=O)(=O)c2ccc3ccccc3c2)CC1,"25.1 µM [rising, single point]",
CCN(C(=O)COC(=O)c1cccnc1Nc1cccc(C(F)(F)F)c1)C1CCS(=O)(=O)C1 (stereo unspecified),,"11.2 µM [rising, single point]"
CC1(C)O[C@@H]2C[C@H]3[C@H]4C[C@H](F)C5=CC(=O)C=C[C@@]5(C)[C@@H]4[C@H](O)C[C@]3(C)[C@]2(C(=O)CO)O1,"0.001 µM [rising, full curve, poor fit]",
